This is an account of results in patent US11814445B2 (Ra Pharmaceuticals, Inc., priority 2018, dated 2023).

This data set in a line: general procedure: Fmoc solid-phase peptide synthesis; PS Rink-Amide MBHA resin, 0.32 mmol g^-1; DIC / Oxyma Pure. The conditions noted are these: whole synthesis, scale 0.250 mmol.

On to Int-A (Example 3), for which the crude mass is on record as 399 mg. Int-A (Example 4) returned a crude mass of 300 mg.
